Experimental data published in the supplement of paper PMC10849652.
Some of the results follow.

By UniProt entry, the sequences of proteins in these tests, tags left out. Where a name states a change or a piece, a line headed by the entry shows the natural chain unless it says otherwise.
UniProt O95453: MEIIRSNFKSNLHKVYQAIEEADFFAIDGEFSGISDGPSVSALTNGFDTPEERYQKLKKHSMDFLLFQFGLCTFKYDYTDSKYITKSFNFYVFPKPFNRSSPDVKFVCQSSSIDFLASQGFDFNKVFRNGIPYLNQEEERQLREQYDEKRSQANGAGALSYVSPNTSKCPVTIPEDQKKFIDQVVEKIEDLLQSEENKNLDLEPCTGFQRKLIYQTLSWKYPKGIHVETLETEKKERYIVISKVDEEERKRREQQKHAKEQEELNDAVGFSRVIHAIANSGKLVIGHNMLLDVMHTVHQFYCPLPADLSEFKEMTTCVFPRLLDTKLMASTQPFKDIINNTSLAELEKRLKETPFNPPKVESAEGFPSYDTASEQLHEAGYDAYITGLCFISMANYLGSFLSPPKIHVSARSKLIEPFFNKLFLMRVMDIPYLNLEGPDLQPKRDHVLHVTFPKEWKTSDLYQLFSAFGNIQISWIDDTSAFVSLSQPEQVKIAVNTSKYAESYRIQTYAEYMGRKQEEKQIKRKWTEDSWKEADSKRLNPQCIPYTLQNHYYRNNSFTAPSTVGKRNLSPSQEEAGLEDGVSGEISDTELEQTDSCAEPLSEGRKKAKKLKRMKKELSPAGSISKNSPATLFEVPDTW
UniProt P35227: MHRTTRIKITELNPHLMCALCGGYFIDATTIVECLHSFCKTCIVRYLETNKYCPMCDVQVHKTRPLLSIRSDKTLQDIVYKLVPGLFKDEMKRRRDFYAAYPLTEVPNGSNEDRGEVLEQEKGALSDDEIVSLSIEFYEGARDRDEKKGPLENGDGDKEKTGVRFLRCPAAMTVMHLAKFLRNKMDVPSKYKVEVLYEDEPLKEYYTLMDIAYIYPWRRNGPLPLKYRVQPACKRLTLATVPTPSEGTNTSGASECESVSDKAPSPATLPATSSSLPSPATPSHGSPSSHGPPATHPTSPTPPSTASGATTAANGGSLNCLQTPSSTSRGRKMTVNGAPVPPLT
UniProt Q8WUM4: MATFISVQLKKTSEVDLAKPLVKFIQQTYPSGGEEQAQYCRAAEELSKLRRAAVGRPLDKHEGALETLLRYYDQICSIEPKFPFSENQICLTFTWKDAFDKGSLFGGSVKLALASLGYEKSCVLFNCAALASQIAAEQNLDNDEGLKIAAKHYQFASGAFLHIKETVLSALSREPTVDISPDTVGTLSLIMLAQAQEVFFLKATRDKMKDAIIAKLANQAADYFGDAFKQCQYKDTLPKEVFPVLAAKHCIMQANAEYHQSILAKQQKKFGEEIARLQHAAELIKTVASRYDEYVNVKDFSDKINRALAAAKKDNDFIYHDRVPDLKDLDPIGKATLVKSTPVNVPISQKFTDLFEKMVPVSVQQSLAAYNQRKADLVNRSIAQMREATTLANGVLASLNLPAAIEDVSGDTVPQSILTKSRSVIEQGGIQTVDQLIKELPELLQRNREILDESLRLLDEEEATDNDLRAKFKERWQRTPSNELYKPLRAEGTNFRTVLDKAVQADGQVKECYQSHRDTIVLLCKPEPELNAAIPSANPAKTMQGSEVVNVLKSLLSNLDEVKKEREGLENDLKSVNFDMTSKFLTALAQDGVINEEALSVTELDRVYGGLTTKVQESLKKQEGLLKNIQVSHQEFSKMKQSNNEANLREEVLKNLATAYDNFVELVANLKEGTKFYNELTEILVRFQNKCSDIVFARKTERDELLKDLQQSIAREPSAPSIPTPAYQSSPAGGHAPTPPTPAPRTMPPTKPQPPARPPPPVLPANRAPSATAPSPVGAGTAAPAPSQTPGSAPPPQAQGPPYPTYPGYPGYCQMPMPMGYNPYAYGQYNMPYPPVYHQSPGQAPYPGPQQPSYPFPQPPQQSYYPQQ
UniProt Q92968: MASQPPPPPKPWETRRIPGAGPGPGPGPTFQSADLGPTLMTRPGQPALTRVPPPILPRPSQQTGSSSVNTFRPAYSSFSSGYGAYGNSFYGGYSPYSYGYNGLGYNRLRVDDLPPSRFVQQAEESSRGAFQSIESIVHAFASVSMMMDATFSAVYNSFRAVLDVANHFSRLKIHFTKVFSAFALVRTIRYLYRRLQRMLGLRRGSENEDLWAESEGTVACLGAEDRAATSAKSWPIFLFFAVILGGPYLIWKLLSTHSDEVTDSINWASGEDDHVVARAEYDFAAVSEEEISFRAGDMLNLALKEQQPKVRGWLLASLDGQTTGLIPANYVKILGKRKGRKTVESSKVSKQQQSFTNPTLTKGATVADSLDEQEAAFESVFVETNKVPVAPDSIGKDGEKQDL
UniProt Q96HC4: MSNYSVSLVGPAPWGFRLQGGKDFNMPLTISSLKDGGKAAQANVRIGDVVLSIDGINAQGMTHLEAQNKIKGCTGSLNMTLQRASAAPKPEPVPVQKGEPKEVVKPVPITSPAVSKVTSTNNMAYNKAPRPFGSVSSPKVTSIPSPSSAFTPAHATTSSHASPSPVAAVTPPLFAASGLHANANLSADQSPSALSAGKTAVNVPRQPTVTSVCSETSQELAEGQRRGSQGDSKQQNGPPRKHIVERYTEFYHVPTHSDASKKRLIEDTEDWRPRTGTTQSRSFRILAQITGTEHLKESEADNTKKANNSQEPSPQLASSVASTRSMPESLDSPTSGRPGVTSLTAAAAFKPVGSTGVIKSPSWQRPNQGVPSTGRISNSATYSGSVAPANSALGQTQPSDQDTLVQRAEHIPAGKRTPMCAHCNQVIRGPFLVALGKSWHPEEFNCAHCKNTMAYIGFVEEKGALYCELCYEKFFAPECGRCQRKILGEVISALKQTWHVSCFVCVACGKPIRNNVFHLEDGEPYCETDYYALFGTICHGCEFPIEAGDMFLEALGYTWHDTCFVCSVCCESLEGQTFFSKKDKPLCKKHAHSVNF
UniProt P49585: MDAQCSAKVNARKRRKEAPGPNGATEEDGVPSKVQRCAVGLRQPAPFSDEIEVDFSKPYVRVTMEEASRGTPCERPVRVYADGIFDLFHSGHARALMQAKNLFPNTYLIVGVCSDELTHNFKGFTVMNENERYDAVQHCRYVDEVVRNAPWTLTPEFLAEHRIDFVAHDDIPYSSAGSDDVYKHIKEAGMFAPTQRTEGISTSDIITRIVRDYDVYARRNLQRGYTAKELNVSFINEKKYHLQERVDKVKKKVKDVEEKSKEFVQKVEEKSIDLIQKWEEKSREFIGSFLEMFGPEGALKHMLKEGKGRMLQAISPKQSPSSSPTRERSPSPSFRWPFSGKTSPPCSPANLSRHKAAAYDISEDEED
UniProt P30039: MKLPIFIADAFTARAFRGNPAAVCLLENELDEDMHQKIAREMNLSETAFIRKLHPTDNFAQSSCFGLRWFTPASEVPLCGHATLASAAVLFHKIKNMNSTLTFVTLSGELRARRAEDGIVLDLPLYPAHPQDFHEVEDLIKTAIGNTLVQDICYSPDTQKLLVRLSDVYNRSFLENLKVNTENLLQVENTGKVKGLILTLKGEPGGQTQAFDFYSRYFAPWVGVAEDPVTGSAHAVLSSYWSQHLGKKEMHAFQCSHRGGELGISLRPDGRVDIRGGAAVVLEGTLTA
UniProt Q9UHV9, whole entry, looked up: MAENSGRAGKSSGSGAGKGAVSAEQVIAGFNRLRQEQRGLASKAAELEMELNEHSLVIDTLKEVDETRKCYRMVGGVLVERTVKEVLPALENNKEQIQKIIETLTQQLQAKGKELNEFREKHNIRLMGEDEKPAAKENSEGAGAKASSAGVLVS
UniProt Q9BRX2, whole entry, looked up: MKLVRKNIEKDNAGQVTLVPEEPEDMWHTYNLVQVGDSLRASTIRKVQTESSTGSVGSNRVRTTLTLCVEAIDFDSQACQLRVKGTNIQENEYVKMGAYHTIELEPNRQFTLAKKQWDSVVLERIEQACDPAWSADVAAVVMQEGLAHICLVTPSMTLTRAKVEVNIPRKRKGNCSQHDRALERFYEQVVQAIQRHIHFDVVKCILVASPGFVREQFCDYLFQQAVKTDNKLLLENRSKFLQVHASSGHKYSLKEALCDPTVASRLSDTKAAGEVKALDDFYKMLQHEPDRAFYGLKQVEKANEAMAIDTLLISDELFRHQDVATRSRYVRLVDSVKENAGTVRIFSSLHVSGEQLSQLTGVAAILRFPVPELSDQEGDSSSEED
UniProt Q15365, whole entry, looked up: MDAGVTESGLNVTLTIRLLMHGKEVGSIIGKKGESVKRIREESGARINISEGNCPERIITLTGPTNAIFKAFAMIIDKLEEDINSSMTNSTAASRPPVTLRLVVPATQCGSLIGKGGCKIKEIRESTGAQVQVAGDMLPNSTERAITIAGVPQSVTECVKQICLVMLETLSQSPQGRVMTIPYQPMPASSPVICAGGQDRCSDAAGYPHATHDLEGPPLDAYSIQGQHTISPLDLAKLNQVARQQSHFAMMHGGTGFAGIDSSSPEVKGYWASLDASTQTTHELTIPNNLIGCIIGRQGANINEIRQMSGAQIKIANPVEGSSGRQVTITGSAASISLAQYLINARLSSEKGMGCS
UniProt P40425: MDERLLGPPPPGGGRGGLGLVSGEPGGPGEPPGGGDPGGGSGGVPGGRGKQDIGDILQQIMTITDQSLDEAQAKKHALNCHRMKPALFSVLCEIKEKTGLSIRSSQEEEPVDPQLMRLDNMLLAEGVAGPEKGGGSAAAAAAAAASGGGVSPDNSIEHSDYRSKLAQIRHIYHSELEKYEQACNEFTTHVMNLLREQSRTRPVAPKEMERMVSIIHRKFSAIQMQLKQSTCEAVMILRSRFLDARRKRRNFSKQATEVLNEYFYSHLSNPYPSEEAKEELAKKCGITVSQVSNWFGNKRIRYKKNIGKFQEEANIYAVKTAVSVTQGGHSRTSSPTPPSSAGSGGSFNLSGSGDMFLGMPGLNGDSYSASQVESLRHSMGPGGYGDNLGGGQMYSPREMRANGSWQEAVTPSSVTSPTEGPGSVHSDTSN
UniProt O75340: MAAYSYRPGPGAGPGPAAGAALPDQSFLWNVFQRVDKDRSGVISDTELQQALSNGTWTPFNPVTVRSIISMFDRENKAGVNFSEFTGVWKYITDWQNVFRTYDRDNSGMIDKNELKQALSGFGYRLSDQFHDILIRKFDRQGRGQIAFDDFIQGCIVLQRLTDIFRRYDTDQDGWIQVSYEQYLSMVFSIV
UniProt Q16875: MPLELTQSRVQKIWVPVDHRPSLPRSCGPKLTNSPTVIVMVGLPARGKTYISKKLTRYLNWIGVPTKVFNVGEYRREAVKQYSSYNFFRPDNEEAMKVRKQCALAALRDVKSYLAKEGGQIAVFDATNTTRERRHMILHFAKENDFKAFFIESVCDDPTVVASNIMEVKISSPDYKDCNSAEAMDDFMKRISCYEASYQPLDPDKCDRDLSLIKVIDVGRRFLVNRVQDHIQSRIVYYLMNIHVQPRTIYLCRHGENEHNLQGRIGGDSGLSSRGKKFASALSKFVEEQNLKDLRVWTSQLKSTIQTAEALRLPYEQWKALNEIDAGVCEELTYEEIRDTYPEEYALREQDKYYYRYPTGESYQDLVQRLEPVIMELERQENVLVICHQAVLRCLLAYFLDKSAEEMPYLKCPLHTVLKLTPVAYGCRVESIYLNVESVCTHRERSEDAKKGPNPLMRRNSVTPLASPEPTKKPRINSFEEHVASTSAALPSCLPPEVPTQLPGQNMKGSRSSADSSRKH
UniProt Q8N0Y7: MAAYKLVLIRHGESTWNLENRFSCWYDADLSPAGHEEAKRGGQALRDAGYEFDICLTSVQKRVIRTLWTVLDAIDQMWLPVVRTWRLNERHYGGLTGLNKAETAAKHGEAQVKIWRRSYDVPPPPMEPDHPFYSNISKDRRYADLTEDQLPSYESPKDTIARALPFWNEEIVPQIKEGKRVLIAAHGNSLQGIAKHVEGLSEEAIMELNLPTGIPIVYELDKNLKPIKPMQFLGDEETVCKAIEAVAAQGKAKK
UniProt Q9NQP4, whole entry, looked up: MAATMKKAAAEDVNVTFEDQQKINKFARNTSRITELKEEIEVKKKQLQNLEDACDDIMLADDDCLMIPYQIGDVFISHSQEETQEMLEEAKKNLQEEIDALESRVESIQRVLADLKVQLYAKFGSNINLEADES
UniProt Q16822, whole entry, looked up: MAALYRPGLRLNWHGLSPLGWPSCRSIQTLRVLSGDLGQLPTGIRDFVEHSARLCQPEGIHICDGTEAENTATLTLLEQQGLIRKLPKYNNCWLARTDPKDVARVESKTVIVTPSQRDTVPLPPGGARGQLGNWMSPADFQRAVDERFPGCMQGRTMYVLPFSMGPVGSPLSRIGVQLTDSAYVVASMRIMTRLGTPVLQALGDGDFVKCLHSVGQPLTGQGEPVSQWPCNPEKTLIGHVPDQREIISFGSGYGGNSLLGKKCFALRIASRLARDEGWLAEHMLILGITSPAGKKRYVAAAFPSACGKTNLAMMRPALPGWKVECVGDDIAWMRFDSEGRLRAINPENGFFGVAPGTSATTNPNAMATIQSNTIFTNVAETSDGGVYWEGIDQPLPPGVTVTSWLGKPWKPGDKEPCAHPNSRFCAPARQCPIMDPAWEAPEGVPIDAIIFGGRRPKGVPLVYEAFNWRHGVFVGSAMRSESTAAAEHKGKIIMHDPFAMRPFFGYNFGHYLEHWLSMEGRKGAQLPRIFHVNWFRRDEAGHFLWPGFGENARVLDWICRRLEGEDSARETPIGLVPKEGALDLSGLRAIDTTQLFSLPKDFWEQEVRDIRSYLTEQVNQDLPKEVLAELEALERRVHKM

Columns and labels:
Assay in all cases: log2 fold change, soluble protein after heating vs DMSO (PISA); higher = thermal stabilisation; K562 lysate, 10 uM; active = over 0.2 and 3.5 SD of the protein, either way, in both replicates (recomputed)
[1] = compound: C1=CC=C(C=C1)[C@H](COC2=CC3=C(C=C2)NC(=O)N3)NC(=O)C4=CC=CN(C4=O)CC5=CC(=C(C=C5)F)F
Summary of the method: (§1)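 To prepare the extract, K562 pellets were dounce-homogenised in PBS pH 7.4 with 1 mM MgCl2, giving crude material at 1 mg/mL protein. This was treated with 10 μM compound for 30 min, then heated in aliquots for 3 min over 48°C-58°C before pooling and addition of NP-40 to 0.5% at 4°C. Centrifugation at 21,000xg for 90 min left soluble protein in the supernatant, which TMTpro 16plex LC-MS/MS quantified with equalised channel sums. Results are log-two fold changes in thermal stability compared with solvent controls, from duplicates.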

[2] = compound: CC1=C(SC2=C1C(=N[C@H](C3=NN=C(N32)C)CC(=O)N)C4=CC=C(C=C4)Cl)C
Summary of the method: as §1

[3] = compound: CC1=C2C(=CC=C1)N=C(N(C2=O)C3=CC=CC=C3C)CN4C=NC5=C(N=CN=C54)N
Summary of the method: as §1

[4] = compound: Cc1sc2c(c1C)C(c1ccc(Cl)cc1)=N[C@@H](CC(=O)OC(C)(C)C)c1nnc(C)n1-2
Summary of the method: as §1

[5] = compound: c1ccc([C@@H]2C[C@H]2NC2CCNCC2)cc1
Summary of the method: as §1

Measured: log2 fold change

PDCD4 (UniProt Q53EL6)
inactive: [1] -0.026 | [2] 0.005 | [3] -0.007 | [4] 0.002 | [5] 0.001

PARN (UniProt O95453)
inactive: [1] -0.04 | [2] 0.002 | [3] -0.003 | [4] -0.012 | [5] 0.01

PDXDC1 (UniProt Q6P996)
inactive: [1] 0.025 | [2] 0.022 | [3] 0.01 | [4] 0.02 | [5] 0.014

PCGF2 (UniProt P35227)
inactive: [1] -0.056 | [2] -0.043 | [3] -0.039 | [4] 0.003 | [5] -0.008

PDZD11 isoform 2 (UniProt Q5EBL8)
inactive: [1] 0.071 | [2] -0.054 | [3] 0.05 | [4] -0.053 | [5] 0.004

PAXBP1 (UniProt Q9Y5B6)
inactive: [1] -0.004 | [2] -0.026 | [3] 0.026 | [4] 0.057 | [5] 0.001

PDCD6IP isoform 2 (UniProt Q8WUM4)
inactive: [1] -0.019 | [2] -0.004 | [3] 0.018 | [4] 0.02 | [5] 0.056

PARVB (UniProt Q9HBI1)
inactive: [1] -0.039 | [2] 0.037 | [3] -0.04 | [4] 0.009 | [5] 0.05

PDCD2L (UniProt Q9BRP1)
inactive: [1] 0.015 | [2] 0.016 | [3] -0.027 | [4] -0.084 | [5] -0.013

PEBP1 (UniProt P30086)
inactive: [1] 0.021 | [2] -0.009 | [3] -0.021 | [4] 0.002 | [5] -0.005

PBDC1 (UniProt Q9BVG4)
inactive: [1] 0.025 | [2] -0.008 | [3] -0.019 | [4] -0.019 | [5] 0.026

PCTP (UniProt Q9UKL6)
inactive: [1] -0.059 | [2] 0.017 | [3] -0.009 | [4] -0.061 | [5] -0.036

PARP1 (UniProt P09874)
inactive: [1] -0.015 | [2] -0.002 | [3] 0.003 | [4] 0.017 | [5] 0.033

PDE12 (UniProt Q6L8Q7)
inactive: [1] -0.018 | [2] 0.025 | [3] 0 | [4] 0.055 | [5] 0.044

PEX13 (UniProt Q92968)
inactive: [1] -0.137 | [2] -0.013 | [3] 0.051 | [4] 0.037 | [5] 0.001

PDCD2 (UniProt Q16342)
inactive: [1] 0.017 | [2] -0.073 | [3] 0.036 | [4] -0.006 | [5] -0.013

PDLIM5 (UniProt Q96HC4)
inactive: [1] 0.044 | [2] 0 | [3] -0.038 | [4] -0.003 | [5] -0.124

PDRG1 (UniProt Q9NUG6)
inactive: [1] 0.035 | [2] -0.048 | [3] -0.101 | [4] 0.012 | [5] -0.097

Taken from the listing (eleven entries):
PAXBP1 (UniProt Q9Y5B6)
inactive: [1] -0.004 | [2] -0.026 | [3] 0.026 | [4] 0.057 | [5] 0.001

PDCD6IP isoform 2 (UniProt Q8WUM4)
inactive: [1] -0.019 | [2] -0.004 | [3] 0.018 | [4] 0.02 | [5] 0.056

PARVB (UniProt Q9HBI1)
inactive: [1] -0.039 | [2] 0.037 | [3] -0.04 | [4] 0.009 | [5] 0.05

PDCD2L (UniProt Q9BRP1)
inactive: [1] 0.015 | [2] 0.016 | [3] -0.027 | [4] -0.084 | [5] -0.013

PEBP1 (UniProt P30086)
inactive: [1] 0.021 | [2] -0.009 | [3] -0.021 | [4] 0.002 | [5] -0.005

PBDC1 (UniProt Q9BVG4)
inactive: [1] 0.025 | [2] -0.008 | [3] -0.019 | [4] -0.019 | [5] 0.026

PCTP (UniProt Q9UKL6)
inactive: [1] -0.059 | [2] 0.017 | [3] -0.009 | [4] -0.061 | [5] -0.036

PARP1 (UniProt P09874)
inactive: [1] -0.015 | [2] -0.002 | [3] 0.003 | [4] 0.017 | [5] 0.033

PDE12 (UniProt Q6L8Q7)
inactive: [1] -0.018 | [2] 0.025 | [3] 0 | [4] 0.055 | [5] 0.044

PEX13 (UniProt Q92968)
inactive: [1] -0.137 | [2] -0.013 | [3] 0.051 | [4] 0.037 | [5] 0.001

PDCD2 (UniProt Q16342)
inactive: [1] 0.017 | [2] -0.073 | [3] 0.036 | [4] -0.006 | [5] -0.013

(further entries)

PCYT1A (UniProt P49585)
inactive: [1] 0.006 | [2] 0.037 | [3] -0.034 | [4] 0.001 | [5] 0.033

PBLD (UniProt P30039)
inactive: [1] -0.013 | [2] 0.031 | [3] 0.09 | [4] -0.048 | [5] 0.013

PDCD6IP (UniProt Q8WUM4)
inactive: [1] -0.077 | [2] 0.086 | [3] 0.037 | [4] 0.043 | [5] 0.085

PFDN2 (UniProt Q9UHV9)
inactive: [1] 0.044 | [2] -0.055 | [3] -0.016 | [4] -0.008 | [5] 0.063

PCNA (UniProt P12004)
inactive: [1] 0.005 | [2] 0.005 | [3] 0.017 | [4] 0.033 | [5] -0.038

PDCL3 (UniProt Q9H2J4)
inactive: [1] 0.036 | [2] -0.001 | [3] 0.046 | [4] -0.041 | [5] 0.009

PAXX (UniProt Q9BUH6)
inactive: [1] 0.025 | [2] 0.002 | [3] 0.018 | [4] -0.026 | [5] -0.011

PELO (UniProt Q9BRX2)
inactive: [1] -0.014 | [2] 0.05 | [3] 0.034 | [4] 0.087 | [5] 0.27

PC (UniProt P11498)
inactive: [1] 0.014 | [2] 0.002 | [3] 0.017 | [4] 0.006 | [5] -0.016

PCBP1 (UniProt Q15365)
inactive: [1] -0.003 | [2] -0.012 | [3] -0.03 | [4] 0.014 | [5] -0.03

PCSK9 (UniProt Q8NBP7)
inactive: [1] -0.071 | [2] 0.015 | [3] -0.033 | [4] -0.047 | [5] -0.104

PDAP1 (UniProt Q13442)
inactive: [1] 0.004 | [2] 0.042 | [3] 0.008 | [4] 0.084 | [5] -0.112

PDCD11 (UniProt Q14690)
inactive: [1] -0.041 | [2] 0.059 | [3] -0.114 | [4] -0.056 | [5] 0.037

PDLIM1 (UniProt O00151)
inactive: [1] 0.065 | [2] -0.029 | [3] -0.024 | [4] 0.013 | [5] -0.039

PDE4DIP isoform 4 (UniProt Q5VU43)
inactive: [1] -0.102 | [2] 0.154 | [3] 0.018 | [4] -0.016 | [5] -0.015

PECAM1 (UniProt P16284)
inactive: [1] -0.013 | [2] 0.018 | [3] -0.064 | [4] -0.009 | [5] -0.067

PBX2 (UniProt P40425)
inactive: [1] 0.021 | [2] -0.002 | [3] 0.047 | [4] 0.025 | [5] 0.005

PFDN6 (UniProt O15212)
inactive: [1] 0.015 | [2] -0.091 | [3] -0.068 | [4] 0.017 | [5] 0.102

PEX11B (UniProt O96011)
inactive: [1] 0.047 | [2] -0.026 | [3] 0.001 | [4] -0.017 | [5] 0.271

PEX5 isoform 4 (UniProt P50542)
inactive: [1] 0.051 | [2] -0.009 | [3] -0.038 | [4] -0.019 | [5] 0.076

PDCD6 (UniProt O75340)
inactive: [1] -0.017 | [2] -0.012 | [3] -0.04 | [4] 0.014 | [5] -0.022

PFKFB3 isoform 4 (UniProt Q16875)
inactive: [1] -0.04 | [2] 0.047 | [3] 0.057 | [4] 0.018 | [5] 0.041

PCMT1 isoform 2 (UniProt P22061)
inactive: [1] -0.005 | [2] -0.054 | [3] 0.003 | [4] 0.091 | [5] 0.045

PEAK1 (UniProt Q9H792)
inactive: [1] -0.179 | [2] 0.113 | [3] 0.146 | [4] 0.072 | [5] 0.019

PCLO (UniProt Q9Y6V0)
inactive: [1] -0.033 | [2] 0.079 | [3] 0.107 | [4] -0.093 | [5] -0.211

PDS5B (UniProt Q9NTI5)
inactive: [1] -0.01 | [2] -0.057 | [3] 0.023 | [4] 0.044 | [5] 0.009

PCBP2 (UniProt H3BRU6)
inactive: [1] 0.166 | [2] -0.15 | [3] -0.208 | [4] 0.104 | [5] -0.11

PGAM4 (UniProt Q8N0Y7)
inactive: [1] 0.031 | [2] -0.01 | [3] 0 | [4] -0.061 | [5] -0.021

PDF (UniProt Q9HBH1)
inactive: [1] -0.056 | [2] -0.007 | [3] -0.024 | [4] 0.024 | [5] 0.028

PFDN5 (UniProt Q99471)
inactive: [1] 0.039 | [2] -0.006 | [3] -0.05 | [4] -0.007 | [5] 0.081

PFDN4 (UniProt Q9NQP4)
inactive: [1] 0.033 | [2] -0.039 | [3] 0.007 | [4] 0.086 | [5] -0.037

PAXIP1 (UniProt Q6ZW49)
inactive: [1] -0.003 | [2] 0.016 | [3] 0.033 | [4] 0.03 | [5] 0.048

PGAM5 (UniProt Q96HS1)
inactive: [1] 0.023 | [2] 0.021 | [3] 0.035 | [4] -0.022 | [5] -0.022

PCK2 (UniProt Q16822)
inactive: [1] 0.017 | [2] 0 | [3] -0.003 | [4] -0.009 | [5] 0.044

PARS2 (UniProt Q7L3T8)
inactive: [1] 0.025 | [2] -0.012 | [3] 0.001 | [4] 0.017 | [5] 0.068
